Record: PubChem BioAssay AID1508597 (Cure First, 2020)

Purpose: 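Genes whose silencing sensitises or protects ovarian cancer cells against rucaparib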 (primary screen)
System: human ovarian carcinoma lines grown from tumours: OCI-P5x (papillary serous) and OCI-C5x (clear cell)
Knock-down reagent: siRNA pool against human genes, 1.25 pmol siRNA per well
Time to read-out: 72 h or 96 h, depending on the cell culture
Challenge: rucaparib 20 µM (about IC30) or vehicle, present until read-out
Rucaparib or vehicle: Vehicle
Cell line: OCI-C5x (clear cell)
Measured: 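ATP luminescence measured at 72 or 96 h according to the culture, then normalised and expressed as percent viability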
Reading the numbers: viability, normalised: higher = more viable cells remaining
Call rule: 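a well counts as a hit if its normalised viability is under 80 percent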
Meaning of the calls: active = viability under 80%; inactive = viability 80% or more
This is an unselected part of the about 2,100 reagents, under one of the conditions tested. 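Calls flag viability under 80% in either arm, not effects specific to rucaparib; the reference for percent is not stated.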 Some reagents were tested in more than one well and are listed for each. The record does not give: the 100% reference.

ASXL2, technical replicate 1 scored viability, normalised (%) = 45.9; active.
For ASXL2, technical replicate 2 the deposit lists viability, normalised (%) = 75.3; active.
ASXL2, technical replicate 3 gave viability, normalised (%) = 38.1; active.
For GRK6, technical replicate 1, the entry reads viability, normalised (%) = 51.5; active.
GRK6, technical replicate 2 showed viability, normalised (%) = 47.9; active.
GRK6, technical replicate 3 showed viability, normalised (%) = 64.4; active.
ERCC4, technical replicate 1 scored viability, normalised (%) = 54.2; active.
With ERCC4, technical replicate 2, the values are viability, normalised (%) = 54.8; active.
With ERCC4, technical replicate 3 the deposit lists viability, normalised (%) = 49.4; active.
With RPS6KA2, technical replicate 1, the entry reads viability, normalised (%) = 66.2; active.
RPS6KA2, technical replicate 2 scored viability, normalised (%) = 53.8; active.
With RPS6KA2, technical replicate 3, the values are viability, normalised (%) = 58.5; active.
With POLA1, technical replicate 1, the entry reads viability, normalised (%) = 39.6; active.
For POLA1, technical replicate 1, the values are viability, normalised (%) = 49.5; active.
POLA1, technical replicate 2 scored viability, normalised (%) = 41.5; active.
For POLA1, technical replicate 2, the entry reads viability, normalised (%) = 51.5; active.
POLA1, technical replicate 3 scored viability, normalised (%) = 44.9; active.
POLA1, technical replicate 3 gave viability, normalised (%) = 34.3; active.

Copied from above for reference:
ERCC4, technical replicate 1 → viability, normalised (%): 54.2; activity call: active
ERCC4, technical replicate 2 → viability, normalised (%): 54.8; activity call: active
ERCC4, technical replicate 3 → viability, normalised (%): 49.4; activity call: active
RPS6KA2, technical replicate 1 → viability, normalised (%): 66.2; activity call: active
RPS6KA2, technical replicate 2 → viability, normalised (%): 53.8; activity call: active

More reagents follow:
LRWD1, technical replicate 1 gave viability, normalised (%) = 44.4; active.
For LRWD1, technical replicate 2 the deposit lists viability, normalised (%) = 46.3; active.
LRWD1, technical replicate 3 scored viability, normalised (%) = 39.4; active.
For LCK, technical replicate 1, the values are viability, normalised (%) = 65; active.
LCK, technical replicate 2 scored viability, normalised (%) = 72.3; active.
For LCK, technical replicate 3 the deposit lists viability, normalised (%) = 64.2; active.
SLIT3, technical replicate 1 scored viability, normalised (%) = 48.9; active.
SLIT3, technical replicate 2 gave viability, normalised (%) = 50.3; active.
SLIT3, technical replicate 3 gave viability, normalised (%) = 41.5; active.
With PRDM12, technical replicate 1, the values are viability, normalised (%) = 48.3; active.
For PRDM12, technical replicate 2 the deposit lists viability, normalised (%) = 38.3; active.
For PRDM12, technical replicate 3 the deposit lists viability, normalised (%) = 49.5; active.
NDEL1, technical replicate 1 scored viability, normalised (%) = 51.8; active.
NDEL1, technical replicate 2 gave viability, normalised (%) = 41.3; active.
With NDEL1, technical replicate 3, the values are viability, normalised (%) = 46.6; active.
